This is a selection; strong and weak results do not stand in their true shares. Calls are pooled over several reports, among them a noisy single-well screen. The list shows a part of the results.
What was measured:
Details in all cases: stereoisomer not certain
[1] = target: OR51B6 (Homo sapiens) (UniProt Q9H340)
In short: (§1)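 Each entry records the cell line, G-protein, co-transfected protein and tags used. Methods varied with the source, often transient luciferase assays in mammalian cell lines. A receptor–molecule pair is called responsive (active) if the original authors judged its signal statistically different from baseline and non-responsive (inactive) otherwise.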

The chains behind the UniProt entries cited, without tags or fusion partners. Where a name states a change or a piece, a line headed by the entry shows the natural chain unless it says otherwise.
UniProt Q9H340: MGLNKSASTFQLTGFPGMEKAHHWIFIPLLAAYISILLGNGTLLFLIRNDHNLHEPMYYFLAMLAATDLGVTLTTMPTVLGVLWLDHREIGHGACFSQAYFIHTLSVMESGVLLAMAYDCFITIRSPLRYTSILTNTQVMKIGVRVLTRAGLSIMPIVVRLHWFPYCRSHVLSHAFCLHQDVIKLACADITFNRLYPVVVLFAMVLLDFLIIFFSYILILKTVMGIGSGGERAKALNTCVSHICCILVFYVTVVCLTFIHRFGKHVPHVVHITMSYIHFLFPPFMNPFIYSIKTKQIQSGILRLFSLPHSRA

[2] = target: T1, OR51D1 (Homo sapiens) (UniProt Q8NGF3)
T1 sequence (whole entry): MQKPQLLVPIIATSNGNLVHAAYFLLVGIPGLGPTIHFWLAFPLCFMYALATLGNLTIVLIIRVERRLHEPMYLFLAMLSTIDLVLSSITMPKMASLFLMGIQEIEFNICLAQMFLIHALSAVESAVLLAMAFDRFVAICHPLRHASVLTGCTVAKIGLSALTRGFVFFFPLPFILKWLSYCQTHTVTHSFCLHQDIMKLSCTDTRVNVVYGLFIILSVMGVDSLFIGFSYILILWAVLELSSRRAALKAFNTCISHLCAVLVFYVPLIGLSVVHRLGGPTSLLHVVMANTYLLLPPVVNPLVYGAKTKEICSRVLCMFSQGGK
In short: as §1

[3] = target: T2, OR51E1 (Homo sapiens) (UniProt Q8TCB6)
T2 sequence (whole entry): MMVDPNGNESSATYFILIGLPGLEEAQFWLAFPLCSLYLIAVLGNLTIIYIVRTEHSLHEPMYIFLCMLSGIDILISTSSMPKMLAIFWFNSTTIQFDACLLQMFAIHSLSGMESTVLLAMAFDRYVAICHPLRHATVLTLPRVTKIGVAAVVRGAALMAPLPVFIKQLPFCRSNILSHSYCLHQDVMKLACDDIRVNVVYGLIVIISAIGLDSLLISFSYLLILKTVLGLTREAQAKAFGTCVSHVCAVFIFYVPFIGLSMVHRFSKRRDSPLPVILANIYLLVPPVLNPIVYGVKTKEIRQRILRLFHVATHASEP
In short: as §1

[4] = target: T3, OR51E1 (Homo sapiens) (UniProt Q8TCB6); remark: listed apart in the source
T3 sequence (whole entry): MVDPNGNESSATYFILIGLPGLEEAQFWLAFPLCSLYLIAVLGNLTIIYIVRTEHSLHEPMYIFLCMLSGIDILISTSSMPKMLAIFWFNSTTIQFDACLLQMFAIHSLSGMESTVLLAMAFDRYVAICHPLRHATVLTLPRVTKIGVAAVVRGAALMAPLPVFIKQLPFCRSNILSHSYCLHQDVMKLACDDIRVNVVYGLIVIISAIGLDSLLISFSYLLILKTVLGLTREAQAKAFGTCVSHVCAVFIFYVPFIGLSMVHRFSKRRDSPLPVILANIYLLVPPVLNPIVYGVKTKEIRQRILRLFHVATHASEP
In short: as §1

[5] = target: T4, OR51E2 (Homo sapiens) (UniProt Q9H255)
T4 sequence (whole entry): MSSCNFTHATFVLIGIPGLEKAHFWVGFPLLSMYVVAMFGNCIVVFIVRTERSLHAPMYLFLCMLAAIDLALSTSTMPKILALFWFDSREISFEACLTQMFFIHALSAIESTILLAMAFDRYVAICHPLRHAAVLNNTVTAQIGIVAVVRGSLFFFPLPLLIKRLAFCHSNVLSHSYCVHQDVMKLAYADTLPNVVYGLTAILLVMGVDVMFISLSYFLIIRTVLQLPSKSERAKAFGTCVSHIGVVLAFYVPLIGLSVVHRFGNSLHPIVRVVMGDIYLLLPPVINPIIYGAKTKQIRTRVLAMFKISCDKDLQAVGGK
In short: as §1

[6] = target: T5, OR51F1 (Homo sapiens) (UniProt A6NGY5)
T5 sequence (whole entry): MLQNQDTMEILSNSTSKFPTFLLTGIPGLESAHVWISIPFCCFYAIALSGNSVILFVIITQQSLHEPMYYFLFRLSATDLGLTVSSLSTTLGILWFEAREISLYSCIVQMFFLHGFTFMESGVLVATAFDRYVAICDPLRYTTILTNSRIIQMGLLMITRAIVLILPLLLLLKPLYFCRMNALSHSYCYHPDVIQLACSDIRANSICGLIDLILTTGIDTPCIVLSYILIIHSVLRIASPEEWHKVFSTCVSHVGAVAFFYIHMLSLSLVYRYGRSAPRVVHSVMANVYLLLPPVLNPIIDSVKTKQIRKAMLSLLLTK
In short: as §1

[7] = target: T6, OR51F2 (Homo sapiens) (UniProt Q8NH61)
T6 sequence (whole entry): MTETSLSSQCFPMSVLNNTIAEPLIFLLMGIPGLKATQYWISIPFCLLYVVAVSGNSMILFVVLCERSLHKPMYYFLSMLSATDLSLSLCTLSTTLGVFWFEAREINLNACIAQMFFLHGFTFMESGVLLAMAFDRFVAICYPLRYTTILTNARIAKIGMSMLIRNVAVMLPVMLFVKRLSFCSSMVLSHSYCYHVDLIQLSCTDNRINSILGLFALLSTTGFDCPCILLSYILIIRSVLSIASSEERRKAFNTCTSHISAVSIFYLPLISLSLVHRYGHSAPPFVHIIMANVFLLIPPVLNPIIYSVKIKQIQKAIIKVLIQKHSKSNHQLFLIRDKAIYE
In short: as §1

[8] = target: T7, OR51G1 (Homo sapiens) (UniProt Q8NGK1)
T7 sequence (whole entry): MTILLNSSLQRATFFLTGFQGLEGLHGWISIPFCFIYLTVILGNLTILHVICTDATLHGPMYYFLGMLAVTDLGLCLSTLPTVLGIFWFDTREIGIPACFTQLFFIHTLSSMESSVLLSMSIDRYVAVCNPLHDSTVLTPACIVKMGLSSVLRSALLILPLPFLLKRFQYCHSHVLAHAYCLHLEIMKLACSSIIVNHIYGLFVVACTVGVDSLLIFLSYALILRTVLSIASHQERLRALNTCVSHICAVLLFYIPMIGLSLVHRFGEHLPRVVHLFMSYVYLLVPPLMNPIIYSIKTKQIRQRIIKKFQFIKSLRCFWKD
In short: as §1

[9] = target: T8, OR51G2 (Homo sapiens) (UniProt Q8NGK0)
T8 sequence (whole entry): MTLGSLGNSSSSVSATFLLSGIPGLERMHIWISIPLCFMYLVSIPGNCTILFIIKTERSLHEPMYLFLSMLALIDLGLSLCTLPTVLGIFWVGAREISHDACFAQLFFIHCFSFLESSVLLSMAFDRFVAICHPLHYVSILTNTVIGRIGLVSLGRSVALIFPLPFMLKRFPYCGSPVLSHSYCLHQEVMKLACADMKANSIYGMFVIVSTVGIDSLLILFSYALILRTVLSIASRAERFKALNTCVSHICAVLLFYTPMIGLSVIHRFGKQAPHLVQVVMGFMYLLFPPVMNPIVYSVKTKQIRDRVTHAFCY
In short: as §1

[10] = target: T9, OR51H1 (Homo sapiens) (UniProt Q8NH63)
T9 sequence (whole entry): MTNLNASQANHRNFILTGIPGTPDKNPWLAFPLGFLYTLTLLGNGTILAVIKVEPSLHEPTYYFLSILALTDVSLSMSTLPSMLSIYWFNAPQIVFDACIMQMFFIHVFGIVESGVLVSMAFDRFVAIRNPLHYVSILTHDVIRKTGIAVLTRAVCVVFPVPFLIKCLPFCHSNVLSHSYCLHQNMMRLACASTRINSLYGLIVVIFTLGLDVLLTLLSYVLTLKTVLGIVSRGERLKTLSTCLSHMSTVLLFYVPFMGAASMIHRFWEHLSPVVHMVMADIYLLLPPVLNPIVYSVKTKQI
In short: as §1

SMILES: CC(=O)C(C)=O
- odorant receptor agonist call [1]: inactive
- odorant receptor agonist call [2]: inactive
- odorant receptor agonist call [3]: inactive
- odorant receptor agonist call [4]: inactive
- odorant receptor agonist call [5]: inactive
- odorant receptor agonist call [6]: inactive
- odorant receptor agonist call [7]: inactive
- odorant receptor agonist call [8]: inactive
- odorant receptor agonist call [9]: inactive
- odorant receptor agonist call [10]: inactive

SMILES: C=CCSCC=C
- odorant receptor agonist call [2]: inactive
- odorant receptor agonist call [3]: active
- odorant receptor agonist call [5]: inactive
- odorant receptor agonist call [8]: inactive
- odorant receptor agonist call [10]: inactive

SMILES: CC(=O)OC(C)(C)C1CC=C(C)CC1 (configuration not stated)
- odorant receptor agonist call [2]: inactive
- odorant receptor agonist call [3]: inactive
- odorant receptor agonist call [5]: inactive
- odorant receptor agonist call [8]: inactive
- odorant receptor agonist call [10]: inactive

SMILES: CC1CCC(C(C)C)C(O)C1 (configuration not stated)
- odorant receptor agonist call [2]: inactive
- odorant receptor agonist call [3]: active
- odorant receptor agonist call [5]: inactive
- odorant receptor agonist call [8]: inactive
- odorant receptor agonist call [10]: inactive

SMILES: CC12CCC(C1)C(C)(C)C2=O (configuration not stated)
- odorant receptor agonist call [2]: inactive
- odorant receptor agonist call [3]: inactive
- odorant receptor agonist call [4]: inactive
- odorant receptor agonist call [5]: inactive
- odorant receptor agonist call [8]: inactive
- odorant receptor agonist call [10]: inactive

SMILES: CC(C)=CCCC(C)=CC=O
- odorant receptor agonist call [2]: inactive
- odorant receptor agonist call [3]: active
- odorant receptor agonist call [5]: inactive
- odorant receptor agonist call [8]: inactive
- odorant receptor agonist call [10]: inactive

SMILES: CC(=O)OC1CC2CCC1(C)C2(C)C (configuration not stated)
- odorant receptor agonist call [2]: inactive
- odorant receptor agonist call [3]: inactive
- odorant receptor agonist call [5]: inactive
- odorant receptor agonist call [8]: inactive
- odorant receptor agonist call [10]: inactive

SMILES: CC(C)CC(=O)O
- odorant receptor agonist call [2]: inactive
- odorant receptor agonist call [3]: active
- odorant receptor agonist call [5]: inactive
- odorant receptor agonist call [8]: inactive
- odorant receptor agonist call [10]: inactive

SMILES: CC=Cc1ccc(O)c(OC)c1
- odorant receptor agonist call [2]: inactive
- odorant receptor agonist call [3]: inactive
- odorant receptor agonist call [5]: inactive
- odorant receptor agonist call [8]: inactive
- odorant receptor agonist call [10]: inactive

SMILES: CCCCCCCC=O
- odorant receptor agonist call [2]: inactive
- odorant receptor agonist call [3]: inactive
- odorant receptor agonist call [4]: inactive
- odorant receptor agonist call [5]: inactive
- odorant receptor agonist call [8]: inactive
- odorant receptor agonist call [10]: inactive

SMILES: CCCCCCCOC(C)=O
- odorant receptor agonist call [2]: inactive
- odorant receptor agonist call [3]: inactive
- odorant receptor agonist call [5]: inactive
- odorant receptor agonist call [8]: inactive
- odorant receptor agonist call [10]: inactive

SMILES: CC12CCC(CC1)C(C)(C)O2
- odorant receptor agonist call [2]: inactive
- odorant receptor agonist call [3]: inactive
- odorant receptor agonist call [5]: inactive
- odorant receptor agonist call [8]: inactive
- odorant receptor agonist call [10]: inactive

Reference: the M2OR odorant receptor database
